These results are taken from PubChem BioAssay AID445 (National Center for Advancing Translational Sciences (NCATS), 2006).

The list shows a part of the results. Shown are side measurements of this screen, not its main read-out; they come without a call. Most of these compounds were active or inconclusive in the main read-out, so they are no random draw. Potencies come from curve fits of mixed quality, noted in brackets.

A short description of the experiment: IkB Signaling. The conditions noted are these: ABC-DLBCL IkBa-CBG/CBR dual luciferase ratio (green luciferase fused to IkBa over red control in OCI-Ly3 lymphoma cells), 4 h. A digest of the protocol: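 In this assay, an IκBα–CBG68 fusion accumulates when IKK-driven degradation is blocked; native CBR normalizes for cell number. OCI-Ly3 cells were treated 4 h with compound and doxycycline, then green and red light read after Chroma-Glo addition.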

[1] abbreviates: measured here: control luc red channel unless noted.
Setting [2] is: measured here: IkB-luc green channel.
Where [3] appears, read: measured here: control luc red channel.

What is called AC50 is the concentration at which the activity in the assay is half-maximal. Consider `O=C(CCCn1c(=O)[nH]c2ccsc2c1=O)N1CCN(c2cccc(C(F)(F)F)c2)CC1`, for which, under setting [1], the AC50 is 15.8 µM [falling, partial curve].

In the case of `CCOC(=O)c1ccccc1NC(=O)c1c(O)c2ccccc2n(CC)c1=O`, under setting [1], the AC50 is 0.0631 µM [falling, full curve].

For the molecule `CCc1nnc(NC(=O)CSc2ncc(-c3ccccc3)n2C)s1`, under setting [1], the concentration at half-maximal activity (AC50) is 31.6 µM [falling, partial curve].

As to `CCNc1nc(NC(C)CC)nc(Oc2ccc(OCC)nn2)n1` (stereo not drawn), the AC50 under setting [1] was 10 µM [rising, partial curve].

In the case of `CC(C)C[C@H](N)c1nnc(S(=O)(=O)Cc2cccc(F)c2)o1`, the AC50 under setting [1] was 12.6 µM [falling, partial curve].

With `Cc1ccc(C)c(NC(=O)c2nnn(Cc3ccccc3C)c2N)c1`, under setting [1], the AC50 was 15.8 µM [falling, partial curve].

Consider `COc1ccc(NCc2cc3cc4c(cc3n(CC(=O)Nc3ccccc3)c2=O)OCO4)cc1`, for which the AC50 under setting [1] was 10 µM [falling, partial curve].

Take `CCOC(=O)Cc1ccc(NC(=O)N(C(C)C)C2CCN(C(C)=O)CC2)cc1`: the half-maximal activity concentration (AC50) under setting [1] was 15.8 µM [falling, partial curve].

For `CCOc1ccc(CNC(=O)Cn2cc3c(n2)-c2c(oc(C(=O)N4CCCC4)c2C)CC3)cc1`, the AC50 under setting [1] was 12.6 µM [falling, partial curve].

Take `CCCC1=Nc2cc(C(=O)NCC(C)c3ccccc3)ccc2Sc2ccccc21` (stereo not drawn): the half-maximal activity concentration (AC50) under setting [1] is 10 µM [falling, partial curve, poor fit].

In the case of `Cc1ccc(C2c3c(-c4ccccc4O)n[nH]c3C(=O)N2CCc2ccccc2)cc1` (stereo not drawn), the AC50 under setting [1] was 7.94 µM [falling, full curve].

In the case of `CCOC(=O)C(C(=O)OCC)c1cc(Br)c2noc3c2c1C(=O)c1ccccc1-3`, the half-maximal activity concentration (AC50) reads like this: under setting [2], 1.58 µM [rising, single point]; under setting [3], 3.16 µM [falling, full curve, poor fit].

For the molecule `CCCNC(=O)c1c(NC(=O)c2ccccc2F)sc2c1CCCCC2`, under setting [1], the concentration at half-maximal activity (AC50) was 12.6 µM [falling, partial curve].

Consider `Cc1ccc(-c2nc(C(=O)Nc3cccc(C#N)c3)c3n2CCCCC3)cc1`, for which the AC50 under setting [1] was 0.02 µM [falling, full curve].

Regarding `Cn1c(CN2CCOCC2)nc2cc(NC(=O)c3ccc(F)cc3)ccc21`, the AC50 under setting [1] was 12.6 µM [falling, partial curve].

`O=C1c2ccccc2C(=O)C1(c1ccccc1)N1CCN(c2cccc(C(F)(F)F)c2)CC1`: under setting [1], the AC50 is 10 µM [falling, partial curve].

Turning to `CCOc1ccccc1NC(=O)CCc1nc(-c2cccc(C)c2)no1`, the AC50 under setting [1] is 25.1 µM [falling, partial curve].

Regarding `COc1ccc(-c2nc(SCC(=O)Nc3ccc4c(c3)OCO4)c(-c3ccc(F)cc3)[nH]2)cc1OC`, under setting [1], the AC50 is 39.8 µM [falling, single point].

For the molecule `COc1ccc(Cl)cc1NC(=O)c1cc2ccccn2n1`, under setting [1], the AC50 was 0.126 µM [rising, full curve, poor fit].

Turning to `COc1cccc(-n2c(=O)c3sccc3n(Cc3cc(=O)n4cc(Cl)ccc4n3)c2=O)c1`, the concentration at half-maximal activity (AC50) under setting [1] is 0.501 µM [rising, full curve].

Turning to `CCN(CC(=O)Nc1c(C(=O)OC)[nH]c2ccccc12)c1ccc2c(c1)OCO2`, the AC50 under setting [1] is 15.8 µM [falling, partial curve].

Turning to `COc1ccc(N2CCN(C(=O)c3c(C)oc4nc(C)nc(N5CCCC5)c34)CC2)cc1`, the half-maximal activity concentration (AC50) under setting [1] was 39.8 µM [falling, single point].

For the molecule `Nc1ccc(C2CCCc3nonc32)c2nonc12` (stereo not drawn), the AC50 under setting [1] was 2.51 µM [falling, full curve].

In the case of `COc1ccc(-c2nc(C)c(CCNC(=O)c3cccs3)s2)cc1`, the AC50 under setting [1] was 39.8 µM [falling, single point].

Turning to `CC1CN(S(=O)(=O)c2cn(C)c(=O)n(C)c2=O)CC(C)O1` (stereo not drawn), under setting [1], the AC50 was 20 µM [falling, partial curve].

Take `CCOc1ccc(OCc2ccc(C(=O)Nc3ccc(Cl)cn3)o2)cc1`: the AC50 under setting [1] is 15.8 µM [falling, partial curve].

With `Cc1ccccc1-c1nnc(SCC(=O)N2CCCc3ccccc32)o1`, the AC50 under setting [1] is 12.6 µM [falling, partial curve].

For `O=C(NCc1cccs1)c1cc2c(s1)CCCC2`, the AC50 under setting [1] was 12.6 µM [falling, partial curve].

As to `COc1cc(Cl)c(C)cc1NC(=O)c1nn(-c2ccc(C)cc2)c(=O)n(C)c1=O`, the AC50 under setting [1] is 10 µM [falling, partial curve].

On to `COc1cccc(NC(=O)CSc2c(C)cnc3c2c(=O)n(C)c(=O)n3C)c1`, for which the AC50 under setting [1] is 3.16 µM [rising, full curve, poor fit] [measured here: IkB-luc green channel].

For the molecule `COc1ccc2oc(=O)c(C(=O)N3CCN(c4cc(Cl)ccc4Cl)CC3)cc2c1`, the AC50 under setting [1] was 39.8 µM [falling, single point].

For `CC(C)(C)c1ccc(S(=O)(=O)/C=C\C#N)cc1`, the AC50 under setting [2] is 6.31 µM [falling, full curve] and the half-maximal activity concentration (AC50) under setting [3] is 6.31 µM [falling, full curve].

With `CCCC(=O)Nc1cccc(-c2nc3ncccc3o2)c1`, the AC50 under setting [1] was 39.8 µM [falling, single point].

`COc1cccc(-c2nc(Nc3ccncc3)c3ccccc3n2)c1`: the concentration at half-maximal activity (AC50) under setting [1] is 3.16 µM [falling, single point] [measured here: IkB-luc green channel].

On to `Cc1ccc(-c2nc(CCNC(=O)C(=O)Nc3ccc(F)cc3F)cs2)cc1`, for which the AC50 under setting [1] is 2.51 µM [falling, partial curve].

In the case of `COc1ccccc1CNC(=O)CCCN1C(=O)CCn2nc(-c3cn(C)c4ccccc34)cc21`, under setting [1], the half-maximal activity concentration (AC50) is 15.8 µM [falling, single point].

Take `CCc1ccc(-c2ccc(C(=O)O)cc2)nc1`: the AC50 under setting [1] is 15.8 µM [falling, partial curve].

For `C=CCOc1ccccc1/C=c1\sc2nc(=O)c(C)nn2c1=O`, the half-maximal activity concentration (AC50) under setting [1] was 6.31 µM [falling, partial curve].

As for `Fc1ccc(C(c2nnc(-c3ccccc3)o2)N2CCN(c3ccccc3)CC2)c(Cl)c1` (stereo not drawn), under setting [1], the half-maximal activity concentration (AC50) is 20 µM [falling, partial curve].

As for `CCOc1ccc(-n2c(SCC(=O)Nc3ccc4c(c3)OCO4)nc3c(c2=O)SCC3)cc1`, the AC50 runs as follows: under setting [2], 3.16 µM [rising, full curve]; under setting [3], 0.794 µM [falling, full curve].
